Cleaved PARP in drug-treated melanoma cells

Source: doi:10.1371/journal.pone.0140310, primary screening data, rounded.

First drug in all entries: MK-2206, 2 µM, NC1(c2ccc(-c3nc4ccn5c(=O)[nH]nc5c4cc3-c3ccccc3)cc2)CCC1

Compounds and concentrations:
PLX4720: CCCS(=O)(=O)Nc1ccc(F)c(C(=O)c2c[nH]c3ncc(Cl)cc23)c1F at 0.4 µM
GW0742: Cc1cc(SCc2sc(-c3ccc(C(F)(F)F)c(F)c3)nc2C)ccc1OCC(=O)O at 10 µM
bexarotene: C=C(c1ccc(C(=O)O)cc1)c1cc2c(cc1C)C(C)(C)CCC2(C)C at 10 µM
AZD7762: NC(=O)Nc1cc(-c2cccc(F)c2)sc1C(=O)N[C@H]1CCCNC1 at 0.1 µM
KU-0063794: COc1ccc(-c2ccc3c(N4CCOCC4)nc(N4C[C@@H](C)O[C@@H](C)C4)nc3n2)cc1CO at 0.1 µM
ENMD-2076: Cc1cc(Nc2cc(N3CCN(C)CC3)nc(/C=C/c3ccccc3)n2)n[nH]1 at 0.2 µM

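The test systems are human melanoma cell lines, treated with a pair of drugs for 72 h and then stained and imaged. Each value is the cleaved-PARP-positive fraction of nuclei relative to DMSO-treated wells, in %, so that 100 equals the control and higher values mean more apoptosis. Every drug was used at one fixed concentration, the higher of two screened. These are primary screening values without error estimates. Basal and induced levels differ widely between cell lines.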
This is part of the screen, not chosen by result.
A dash means that no value is listed here.

Cell line | ENMD-2076 | GW0742 | AZD7762 | KU-0063794 | bexarotene | PLX4720
RPMI-7951 | 106 | 91.3 | 172 | 61.1 | 62.1 | 83.7
UACC-257 | 39.1 | 61.3 | 40.0 | 64.4 | 29.2 | 40.0
LB2518-MEL | 108 | 132 | 305 | 95.8 | 354 | 128
WM451Lu | 281 | 114 | 163 | 175 | 74.0 | 194
A375 | 279 | 135 | - | 110 | 51.1 | 206
WM1716 | 25.9 | 97.2 | 684 | 92.4 | 62.0 | 66.6
SK-MEL-5 | 108 | 113 | 153 | 335 | 82.0 | 550
WM3619 | 97.6 | 120 | 412 | 151 | 129 | 114
A101D | 101 | 127 | 138 | 182 | 157 | 56.5
MZ2-MEL | 15.4 | 85.5 | 59.6 | 273 | 459 | 138
C32 | 346 | 93.7 | 215 | 87.2 | 281 | 459
UACC-62 | 185 | 184 | 162 | 432 | 253 | 422
SK-MEL-28 | 103 | 77.6 | 518 | 233 | 53.8 | 110
LOX IMVI | 17.0 | 62.7 | 102 | 196 | 35.7 | 82.8
COLO 800 | 199 | 195 | 123 | 42.0 | 121 | 102
WM1745 | 134 | - | 85.9 | - | 198 | 137
MeWo | 70.2 | 75.5 | 68.8 | 91.0 | 17.0 | 79.1
IST-MEL1 | 161 | 43.0 | 26.6 | 94.8 | 139 | 118
SK-MEL-30 | 132 | 134 | 259 | 212 | 165 | 86.5
MEL-HO | 112 | 132 | 103 | 137 | 91.1 | 139
COLO 829 | 51.6 | 121 | 183 | 128 | 45.7 | 255
IPC-298 | 109 | 177 | 85.8 | 113 | 56.4 | 131
G-361 | 96.1 | 182 | 69.7 | 250 | 122 | 744
WM3526 | 189 | 135 | 1040 | 216 | 146 | 694
501mel | - | 118 | - | 83.0 | - | -
RVH-421 | 86.1 | 154 | 18.7 | 123 | 138 | 169
A2058 | 141 | 72.7 | 138 | 115 | 101 | 206
SK-MEL-2 | 31.4 | 30.1 | 149 | 182 | 39.0 | 102
COLO 792 | 215 | 109 | 287 | 367 | 60.3 | 272
WM115 | 422 | 66.0 | 195 | 64.2 | 50.6 | 790